Source: paper PMC4687643

Assays:
[1] = biological target: T1, GST-Cdc42 interacting protein 4 (CIP4) SH3 domain (human) (UniProt Q15642); assay: pull-down; GST-SH3 domains (~3 μg) on GSH-sepharose beads incubated with rat brain synaptosome lysate (1% Triton X-100, 5 mM Tris pH 7.4, 30 mM NaCl); Coomassie Blue stained gel; only the target purified
T1 sequence: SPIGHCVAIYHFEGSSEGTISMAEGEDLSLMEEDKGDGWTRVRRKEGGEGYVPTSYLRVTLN

[2] = biological target: T2, GST-Formin Binding Protein 17 (FBP17) SH3 domain (human) (UniProt Q96RU3); assay: as above
T2 sequence: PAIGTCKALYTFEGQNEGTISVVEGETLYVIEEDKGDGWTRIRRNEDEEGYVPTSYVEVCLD

[3] = biological target: T3, GST-amphiphysin I SH3 domain (human) (UniProt P49418); assay: as above
T3 sequence: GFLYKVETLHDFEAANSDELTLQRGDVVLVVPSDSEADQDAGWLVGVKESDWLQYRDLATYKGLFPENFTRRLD

[4] = biological target: T4, GST-amphiphysin II SH3 domain (human) (UniProt O00499); assay: as above
T4 sequence: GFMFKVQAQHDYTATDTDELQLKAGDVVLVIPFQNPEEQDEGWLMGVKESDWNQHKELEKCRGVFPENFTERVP

[5] = biological target: T1, GST-Cdc42 interacting protein 4 (CIP4) SH3 domain (human); assay: pull-down; GST-SH3 domains (~12 μg) on GSH-sepharose beads incubated with purified sheep dynamin I (~3 μg), 10 min, 4°C; 10 mM Tris pH 7.4, 30 mM or 150 mM NaCl, 20 mM MgCl2, 0.05% Tween 80, 1 mM EDTA, 1 mM EGTA; Coomassie Blue stained gel; both purified
[6] = biological target: T2, GST-Formin Binding Protein 17 (FBP17) SH3 domain (human); assay: as above
[7] = biological target: T3, GST-amphiphysin I SH3 domain (human); assay: as above
[8] = biological target: T4, GST-amphiphysin II SH3 domain (human); assay: as above
[9] = biological target: T1, GST-Cdc42 interacting protein 4 (CIP4) SH3 domain (human); assay: pull-down; GST-SH3 domains (~12 μg) on GSH-sepharose beads incubated with purified recombinant full-length human dynamin I splice variants (~3 μg), 30 min, 4°C; 30 mM or 150 mM NaCl; Coomassie Blue stained gel; both purified
[10] = biological target: T2, GST-Formin Binding Protein 17 (FBP17) SH3 domain (human); assay: as above
[11] = biological target: T3, GST-amphiphysin I SH3 domain (human); assay: as above
[12] = biological target: T4, GST-amphiphysin II SH3 domain (human); assay: as above

Measured: binding

dynamin in rat brain synaptosomes (enzyme)
binds: [1] | [2] | [3] | [4]

endogenous sheep brain dynamin I (enzyme)
binds: [5] | [6] | [7] | [8]

recombinant human dynamin I middle domain splice variant Iab (enzyme)
binds: [9] | [10] | [11] | [12]

recombinant human dynamin I middle domain splice variant Ibb (enzyme)
binds: [9] | [10] | [11] | [12]

No constants are given. Whether binding was seen depends on the method and setting. Binding calls can cover weak binding; strength is not graded here. Where a sequence is shown, tags or fusion partners need not be part of it. For some of these results: Binding seen in cells or lysates may run through a third protein.
